## Library screen at single concentrations

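Whole-cell growth test on Mycobacterium tuberculosis, read after 3 days in glucose-containing 7H9 medium; the read-out is not stated. Compounds at 500 µM. Higher reads as more growth inhibition (inferred: compounds with an IC50 in retests scored well above the rest). About 18,000 compounds were tested under these conditions; 7.9% (about 1,400) showed 50% or more at least once.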

Values are the deposited “Percent Effect”, in %.
How 0% and 100% were set is not recorded. Most values in the screen are low, and negative values occur.
Compounds were drawn at random from those tested, without regard to their results.

CC(=O)Nc1ccccc1CN(C)CC(C)O (stereo not given) read 8.398%. Cc1cnn(CCNc2cc(C)nc(N)n2)c1 read 5.357%. CC(C)NC(=O)c1nc(-c2ccc(F)cc2)no1 read 6.868%. With NC[C@H](O)c1cccc(Cl)c1 the screen gave 45.63%. OCCOc1cccc(C(F)(F)F)n1 read 3.711%. N#Cc1ccccc1NC(=O)CCN1CCCC(O)C1 (stereo not given) gave -5.713%. For CC(C)N1CCC(NC2CCC3(CC2)OCCO3)CC1 the result was -2.882%. Cn1nc2n(c1=O)C(=O)N(c1ccccc1)C2 read -0.9535%.

Result for CN1CCC(N(C)C(=O)c2ccc(C#N)cc2)CC1 was 4.496%. Result for CCNC(=O)CN1CCN(Cc2cccnc2N)CC1 was 3.645%. COCCOCC1CCN(Cc2ccc(C#N)cc2)C1 (stereo not given) read 48.34%. Result for CC(CN1CCOCC1)NC(=O)Nc1ccccn1 (stereo not given) was -7.353%. OC(CN1CCn2ccnc2C1)c1cccc(F)c1 (stereo not given) read 50.03%. O=C(c1cc(CN2CCC(O)CC2)on1)N1CCCC1 gave 2.069%. O=c1ccn(Cc2nc(-c3ccc(Br)o3)no2)c(=O)[nH]1 gave 2.127%. O=C(NCC1(CO)CCC1)Nc1ccc2cn[nH]c2c1 gave 38.28%.

Nc1nc(CCC(=O)NCCc2ccccn2)cs1 read 18.67%. Result for CO[C@@H]1CN[C@@H](c2nc(C3CC3)no2)C1 was 4.244%. Cc1n[nH]c(C)c1CN1CCC2(CCNCC2)C1 read -9.192%. CC(c1nc(C(C)(C)C)no1)N1CCN(CCO)CC1 (stereo not given) read 4.403%. Result for COc1ccncc1NC(=O)c1ccc2c(c1)OCO2 was 19.14%. CN(C)CCOc1ccc(NS(C)(=O)=O)cc1 read -9.327%. Cc1cc(N2CCCC(N)C2)nc(C)n1 (stereo not given) read 6.363%. O=C(NCCOc1ncccc1Cl)c1ccsc1 read 59.23%.

With CCN1CCCC(CNC(=O)Nc2cc(C)nn2C)C1 (stereo not given) the screen gave 9.065%. With COc1cccc(N2CCC(N)CC2)c1 the screen gave 61.48%. Result for CSCCC(O)C(=O)NCCc1ccnn1C (stereo not given) was 10.15%. With OCC1(O)CCc2ccccc21 (stereo not given) the screen gave 16.12%. For Cc1cc(Cl)ccc1NC(=O)CN1CCS(=O)(=O)CC1 the result was 12.83%. O=C(CN1CSCC1=O)NCCc1cccc(Cl)c1 read 25.28%. With NCc1ccccc1S(N)(=O)=O the screen gave -5.198%. With COC(=O)C(C)N(c1cc(Cl)ccc1OC)S(C)(=O)=O (stereo not given) the screen gave 20.34%.

For O=C(C1CCOC1)N1CCN(c2ccncc2Cl)CC1 (stereo not given) the result was 4.587%. Cn1ncc(CN)c1C(F)(F)F gave -1.92%. O=C(Nc1ccc(Br)cn1)C1CCCNC1 (stereo not given) read -21.5%. O=S(=O)(CCNCc1ccsc1)N1CCOCC1 read 0.6327%. CCOc1ncccc1C(=O)NCC(C)N1CCCC1 (stereo not given) gave 18.91%. CC(C(=O)Nc1cccc(-c2nccs2)c1)S(C)(=O)=O (stereo not given) gave -4.926%. With Cc1cc(C)nc(SCC(=O)Nc2ccn(C)n2)n1 the screen gave 12.68%. CCn1cc(CNC(=O)[C@H](CCSC)NC(C)=O)cn1 read 12.87%.

CCC(CO)CC(F)(F)F (stereo not given) read 16.32%. With CCN(CC)C(=O)CCn1ccccc1=O the screen gave 24.42%. N#Cc1cc(F)ccc1CN1CC[C@@H](O)C1 gave -4.533%. With COC(=O)c1cncc(C(=O)NCCc2ccsc2)c1 the screen gave 40.58%. With COCCOCc1cccc(NC(=O)NC(C)C)c1 the screen gave 63.38%. CC(C)(C)N(CCS(C)(=O)=O)C(=O)c1ccncc1F gave -3.02%.

The first 4 entries again:

Compound	Percent Effect
CC(=O)Nc1ccccc1CN(C)CC(C)O (stereo not given)	8.398
Cc1cnn(CCNc2cc(C)nc(N)n2)c1	5.357
CC(C)NC(=O)c1nc(-c2ccc(F)cc2)no1	6.868
NC[C@H](O)c1cccc(Cl)c1	45.63

The values are deposited in ChEMBL (CHEMBL3988442, “University of Dundee, Small-Polar-MMV Screening Library” (2021)).